Paper PMC5582858, “The yeast kinesin-5 Cin8 interacts with the microtubule in a noncanonical manner” (The Journal of Biological Chemistry, 2017)
Results are given in words; binding and its absence hold for the method and conditions named.

Target: Cin8 motor domain (purified Cin8 protein used for size-exclusion chromatography; construct not named) (S. cerevisiae) (UniProt P27895)
Experiment: SEC; Superose 6 Increase 10/300, 293 K, 20 mM HEPES pH 7.2, 150 mM potassium chloride, 0.5 ml/min; compared with monomeric Eg5; both purified

B1: Cin8 motor domain (purified Cin8 protein used for size-exclusion chromatography; construct not named) (domain or fragment, UniProt P27895 70-535)
chain: ISINTTGDTGITAQMNAKRYTVDKVFGPGASQDLIFDEVAGPLFQDFIKGYNCTVLVYGMTSTGKTYTMTGDEKLYNGELSDAAGIIPRVLLKLFDTLELQQNDYVVKCSFIELYNEELKDLLDSNSNGSSNTGFDGQFMKKLRIFDSSTANNTTSNSASSSRSNSRNSSPRSLNDLTPKAALLRKRLRTKSLPNTIKQQYQQQQAVNSRNNSSSNSGSTTNNASSNTNTNNGQRSSMAPNDQTNGIYIQNLQEFHITNAMEGLNLLQKGLKHRQVASTKMNDFSSRSHTIFTITLYKKHQDELFRISKMNLVDLAGSENINRSGALNQRAKEAGSINQSLLTLGRVINALVDKSGHIPFRESKLTRLLQDSLGGNTKTALIATISPAKVTSEETCSTLEYASKAKNIKNKPQLGSFIMKDILVKNITMELAKIKSDLLSTKSKEGIYMSQDHYKNLNSDLESYKN
B1 was tested, and the binding was “no binding”.
